# PubChem BioAssay AID1259254, NCATS – 2017
# Screen: 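Genome-wide screen for genes that prevent DNA re-replication in cancer cells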 (primary screen)
# Cells: human HCT116 colorectal cancer cells
# Reagent: single siRNA against human genes
# Time to read-out: 3 days
# Measured: 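Nuclei stained with Hoechst and imaged; cell-cycle phase assigned by DNA content; G2 share scaled per plate, non-targeting siRNA 0%, GMNN siRNA 100%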
# Direction: G2 robust z-score and G2 cells, % of GMNN control: higher = more G2 cells, more excess DNA replication; raw share of cells in G2: higher = larger share of cells with G2 DNA content
# Call rule: 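An siRNA counts as active if its G2 robust z-score lies at least 5 MADs above the screen median; here such calls match roughly 38% of GMNN control or more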
# Here is one part, drawn at random, of about 59,000 reagents. About 1,550 of all reagents (2.6%) were called active. 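G2 share is only a proxy for re-replication; each gene was hit by three separate siRNAs, and active genes were retested.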 The raw values are shown without normalisation. Entries without a mark were called inactive. Reagents against one gene are numbered here. Not stated in the record: the amount of reagent.
Target gene,reagent,G2 robust z-score,"G2 cells, % of GMNN control",raw share of cells in G2 (%)
THAP9,1,-0.702,-1.97,3.63
THAP9,2,-0.444,-0.159,4.23
THAP9,3,0.586,7.09,4.32
RNF17,1,0.299,5.07,6.35
RNF17,2,-0.132,2.04,5.43
RNF17,3,-1.18,-5.32,1.34
HOXD1,1,0.00496,3,6.13
HOXD1,2,-0.319,0.723,5.96
HOXD1,3,-0.289,0.932,4.54
SEC14L1,1,3.66,28.7,17.2
SEC14L1,2,-0.254,1.18,4.69
SEC14L1,3,0.204,4.4,4.94
ADH6,1,-0.656,-1.65,4.49
ADH6,2,2.48,20.4,11.6
ADH6,3,5.55 (active),42,19
LINC02870,1,0.853,8.97,5.6
LINC02870,2,-0.375,0.33,3.72
LINC02870,3,0.306,5.12,4.68
ZNF138,1,-0.988,-3.98,2.2
ZNF138,2,-0.282,0.982,6.42
ZNF138,3,1.58,14.1,9.24
NACA,1,1.88,16.2,9.88
NACA,2,0.572,6.99,8.12
NACA,3,1.61,14.3,8.29
CD164,1,2.48,20.4,14.2
CD164,2,0.107,3.72,5.37
CD164,3,0.207,4.42,4.91
THYN1,1,-0.316,0.744,4.14
THYN1,2,0.668,7.67,7.45
THYN1,3,-0.326,0.673,3.47

Taken from above:
LINC02870 #3, G2 robust z-score → 0.306
Value for SEC14L1 #2 under “raw share of cells in G2 (%)”: 4.69
Result for THYN1 #3 under “G2 cells, % of GMNN control”: 0.673
SEC14L1 #1, raw share of cells in G2 (%) → 17.2
Entry for LINC02870 #2 in “G2 cells, % of GMNN control”: 0.33
